Results are given in words; binding and its absence hold for the method and conditions named. Some entries that bind do so weakly or less than the wild type.
B1: human anti-KDR (VEGFR-2) Fab D2C6 (Fab, V domains shown)
VH: EVQLVQSGGGLVKPGGSLRLSCAASGFTFSSYSMNWVRQAPGKGLEWVSSISSSSSYIYYADSVKGRFTISRDNAKNSLYLQMNSLRAEDTAVYYCARVTDAFDIWGQGTMVTVSS
VL: EIVMTQSPATLSLSPGERATLSCRASQSVSSYLAWYQQKPGQAPRLLIYDSSNRATGIPARFSGSGSGTDFTLTISSLEPEDFATYYCLQHNTFPPTFGQGTKVEIK
B2: human anti-KDR (VEGFR-2) Fab D1H4 (Fab, V domains shown)
VH: EVQLVQSGGGLVKPGGSLRLSCAASGFTFSSYSMNWVRQAPGKGLEWVSSISSSSSYIYYADSVKGRFTISRDNAKNSLYLQMNSLRAEDTAVYYCARVTDAFDIWGQGTMVTVSS
VL: QSALTQPASLSGSPGQSITISCAGTTTDLTYYDLVSWYQQHPGQAPKLVIYDGNKRPSGVSNRFSGSKSGNTASLTISGLQAEDEADYYCNSYVSSRFYVFGTGTKVTVL
B3: human anti-KDR (VEGFR-2) Fab D2H2 (Fab, V domains shown)
VH: EVQLVQSGGGLVKPGGSLRLSCAASGFTFSSYSMNWVRQAPGKGLEWVSSISSSSSYIYYADSVKGRFTISRDNAKDSLYLQMNSLRAEDTAVYYCARVTDAFDIWGQGTMVTVSS
VL: DIQLTQSPSSVSASVGDRVTITCRASQGISSRLAWYQQKPGKAPKLLIYAASSLQTGVPSRFSGSGSGTDFTLTISSLQPEDFATYYCQQANRFPPTFGPGTKVDIK

Sequences of proteins named here, by UniProt entry; tags and fusion partners are left off. A change or cut given only in a name is not applied to a line headed by its entry.
UniProt P35968: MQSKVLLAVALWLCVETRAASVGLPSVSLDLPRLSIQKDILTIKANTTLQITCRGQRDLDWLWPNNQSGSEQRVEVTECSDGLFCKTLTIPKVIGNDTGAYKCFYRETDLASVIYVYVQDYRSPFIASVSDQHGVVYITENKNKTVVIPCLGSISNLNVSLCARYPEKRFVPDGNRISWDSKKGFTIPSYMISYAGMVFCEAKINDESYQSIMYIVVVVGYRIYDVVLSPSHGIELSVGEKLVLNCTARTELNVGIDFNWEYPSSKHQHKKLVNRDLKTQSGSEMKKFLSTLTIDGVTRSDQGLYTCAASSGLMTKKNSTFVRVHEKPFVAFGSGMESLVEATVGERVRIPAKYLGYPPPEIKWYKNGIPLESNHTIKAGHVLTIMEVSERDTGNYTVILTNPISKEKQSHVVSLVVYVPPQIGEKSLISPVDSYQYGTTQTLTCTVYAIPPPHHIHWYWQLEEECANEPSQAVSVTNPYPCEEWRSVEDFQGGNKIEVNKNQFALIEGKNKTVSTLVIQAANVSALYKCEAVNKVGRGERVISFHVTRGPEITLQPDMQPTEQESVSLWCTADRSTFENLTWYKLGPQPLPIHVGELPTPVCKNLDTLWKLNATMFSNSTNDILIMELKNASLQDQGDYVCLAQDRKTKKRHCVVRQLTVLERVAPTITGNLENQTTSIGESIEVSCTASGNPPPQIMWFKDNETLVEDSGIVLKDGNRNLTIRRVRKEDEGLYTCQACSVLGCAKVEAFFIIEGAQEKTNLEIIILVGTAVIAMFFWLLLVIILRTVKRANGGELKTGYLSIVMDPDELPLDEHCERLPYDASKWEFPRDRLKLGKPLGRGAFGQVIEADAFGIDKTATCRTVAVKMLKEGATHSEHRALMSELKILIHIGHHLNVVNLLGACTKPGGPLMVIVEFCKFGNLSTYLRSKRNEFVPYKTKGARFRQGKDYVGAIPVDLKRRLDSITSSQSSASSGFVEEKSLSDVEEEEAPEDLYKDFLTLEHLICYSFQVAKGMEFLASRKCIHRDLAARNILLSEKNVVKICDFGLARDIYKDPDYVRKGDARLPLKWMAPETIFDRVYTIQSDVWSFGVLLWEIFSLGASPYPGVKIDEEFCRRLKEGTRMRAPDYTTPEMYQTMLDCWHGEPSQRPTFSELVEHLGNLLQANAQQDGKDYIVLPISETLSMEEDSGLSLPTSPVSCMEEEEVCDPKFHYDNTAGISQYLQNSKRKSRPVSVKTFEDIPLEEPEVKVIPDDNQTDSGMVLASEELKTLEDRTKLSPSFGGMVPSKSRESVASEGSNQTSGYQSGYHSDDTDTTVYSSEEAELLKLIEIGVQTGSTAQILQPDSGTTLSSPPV
UniProt P05187: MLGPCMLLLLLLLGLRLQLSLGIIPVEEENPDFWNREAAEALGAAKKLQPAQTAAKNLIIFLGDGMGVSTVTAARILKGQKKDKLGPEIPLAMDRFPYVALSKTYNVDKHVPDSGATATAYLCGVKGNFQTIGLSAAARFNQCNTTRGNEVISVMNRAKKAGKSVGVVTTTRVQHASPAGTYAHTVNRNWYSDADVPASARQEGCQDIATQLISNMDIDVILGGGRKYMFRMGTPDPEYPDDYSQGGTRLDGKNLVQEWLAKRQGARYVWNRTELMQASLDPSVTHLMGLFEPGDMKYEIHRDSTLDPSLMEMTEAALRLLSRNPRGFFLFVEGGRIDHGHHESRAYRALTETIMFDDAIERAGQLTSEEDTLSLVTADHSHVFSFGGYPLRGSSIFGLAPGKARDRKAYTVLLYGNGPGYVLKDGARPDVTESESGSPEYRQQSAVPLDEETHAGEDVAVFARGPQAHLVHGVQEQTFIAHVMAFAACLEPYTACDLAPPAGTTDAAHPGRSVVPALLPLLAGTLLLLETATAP

Molecular target: soluble fusion protein KDR-AP (KDR (VEGFR-2) extracellular domain fused to human placental alkaline phosphatase) (human) (UniProt P35968+P05187)
Test: epitope-mapping ELISA, AP fusions captured by anti-AP antibody

binding, binds:
B1
B2
B3
